# PubChem BioAssay AID1224830 – NIAID, 2016
# Test: 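Regulators of TLR4 signalling towards TNF-alpha in macrophage-like cells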 (primary screen)
# System: human THP-1 monocytic leukaemia cells, TNF dual-luciferase reporter clone, PMA-differentiated to macrophage-like cells
# Reagents: siRNA pool against human genes, 50 nM
# Duration: LPS for 4 h, given about 3 days after siRNA transfection
# Challenge: bacterial LPS (TLR4 ligand), 10 ng/ml
# Detection: 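Ratio of firefly to renilla light, scaled to the plate median and expressed as a robust z-score per replicate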
# Direction: TNF reporter robust z-score: higher = stronger TNF reporter response to LPS
# Hit rule: 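Each well counts as active if its z-score is over 2.8 or under -1.5; controls are left without a call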
# This is a random part of about 18,000 reagents tested. About 2,900 of all reagents (16%) were called active. 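Calls are made per well; low scores hint the gene aids the LPS response, high scores that it dampens it.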 A number with no mark means an inactive call. Repeated entries: four replicate wells of each siRNA pool.
Target gene,TNF reporter robust z-score
ZFP36L1 (ZFP36 like 1 zinc finger CCCH-type),0.62
ZFP36L1 (ZFP36 like 1 zinc finger CCCH-type),-0.09
ZFP36L1 (ZFP36 like 1 zinc finger CCCH-type),-0.48
ZFP36L1 (ZFP36 like 1 zinc finger CCCH-type),0.31
CDC26 (cell division cycle 26),-0.16
CDC26 (cell division cycle 26),1.15
CDC26 (cell division cycle 26),0.68
CDKN2D (cyclin dependent kinase inhibitor 2D),1.5
CDKN2D (cyclin dependent kinase inhibitor 2D),0.44
CDKN2D (cyclin dependent kinase inhibitor 2D),0.98
CDKN2D (cyclin dependent kinase inhibitor 2D),7.45 (active)
GLB1 (galactosidase beta 1),1.11
GLB1 (galactosidase beta 1),0.01
GLB1 (galactosidase beta 1),1.32
GLB1 (galactosidase beta 1),0.77
GAST (gastrin),1.13
GAST (gastrin),0.38
GAST (gastrin),0.47
GAST (gastrin),0.41
GLT6D1 (glycosyltransferase 6 domain containing 1),0.67
GLT6D1 (glycosyltransferase 6 domain containing 1),0.76
GLT6D1 (glycosyltransferase 6 domain containing 1),-0.38
GLT6D1 (glycosyltransferase 6 domain containing 1),0.93
UTP6 (UTP6 small subunit processome component),-0.21
UTP6 (UTP6 small subunit processome component),0.04
UTP6 (UTP6 small subunit processome component),0.34
UTP6 (UTP6 small subunit processome component),0.26
FAAP24 (FA core complex associated protein 24),-0.59
FAAP24 (FA core complex associated protein 24),0.1
FAAP24 (FA core complex associated protein 24),-0.15
FAAP24 (FA core complex associated protein 24),0.17
WDR7 (WD repeat domain 7),0.11
WDR7 (WD repeat domain 7),-0.22
WDR7 (WD repeat domain 7),0.78
WDR7 (WD repeat domain 7),-0.2
LRRCC1 (leucine rich repeat and coiled-coil centrosomal protein 1),0.82
LRRCC1 (leucine rich repeat and coiled-coil centrosomal protein 1),0.8
LRRCC1 (leucine rich repeat and coiled-coil centrosomal protein 1),-0.47
LRRCC1 (leucine rich repeat and coiled-coil centrosomal protein 1),1.8
ABCC5 (ATP binding cassette subfamily C member 5),0.19
ABCC5 (ATP binding cassette subfamily C member 5),1.78
ABCC5 (ATP binding cassette subfamily C member 5),1.23
ABCC5 (ATP binding cassette subfamily C member 5),0.79
EEF1G (eukaryotic translation elongation factor 1 gamma),0.31
EEF1G (eukaryotic translation elongation factor 1 gamma),2.15
EEF1G (eukaryotic translation elongation factor 1 gamma),0.8
EEF1G (eukaryotic translation elongation factor 1 gamma),0.29
